From the supplement of paper PMC10849652
This is one part of the list.

Protein sequences, listed by entry. Tags and fused reporters are not part of them. Lines headed by an entry give the natural chain unless they say otherwise; changes in a name come on top.
UniProt P09382, whole entry, looked up: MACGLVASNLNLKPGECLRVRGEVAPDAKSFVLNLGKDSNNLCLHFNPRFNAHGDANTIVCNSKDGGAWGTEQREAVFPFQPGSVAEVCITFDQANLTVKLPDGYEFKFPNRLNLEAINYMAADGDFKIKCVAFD
UniProt Q68DH5: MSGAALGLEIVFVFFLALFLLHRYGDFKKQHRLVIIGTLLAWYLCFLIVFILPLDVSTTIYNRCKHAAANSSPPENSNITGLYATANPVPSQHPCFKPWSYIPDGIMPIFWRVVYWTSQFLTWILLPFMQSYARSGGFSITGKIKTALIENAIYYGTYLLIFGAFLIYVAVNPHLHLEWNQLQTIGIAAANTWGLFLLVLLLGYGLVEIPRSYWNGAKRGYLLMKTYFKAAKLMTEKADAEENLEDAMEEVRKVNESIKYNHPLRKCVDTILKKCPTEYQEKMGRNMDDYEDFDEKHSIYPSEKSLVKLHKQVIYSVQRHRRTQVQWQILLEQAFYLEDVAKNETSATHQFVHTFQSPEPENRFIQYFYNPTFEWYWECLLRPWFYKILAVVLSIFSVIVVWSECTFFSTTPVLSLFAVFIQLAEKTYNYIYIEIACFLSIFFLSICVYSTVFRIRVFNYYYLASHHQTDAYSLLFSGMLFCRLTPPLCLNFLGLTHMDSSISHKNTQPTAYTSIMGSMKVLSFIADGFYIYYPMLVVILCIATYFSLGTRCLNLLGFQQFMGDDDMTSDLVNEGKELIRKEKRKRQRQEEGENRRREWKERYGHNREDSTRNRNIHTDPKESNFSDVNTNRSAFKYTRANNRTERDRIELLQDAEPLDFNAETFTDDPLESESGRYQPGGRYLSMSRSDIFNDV
UniProt Q15345: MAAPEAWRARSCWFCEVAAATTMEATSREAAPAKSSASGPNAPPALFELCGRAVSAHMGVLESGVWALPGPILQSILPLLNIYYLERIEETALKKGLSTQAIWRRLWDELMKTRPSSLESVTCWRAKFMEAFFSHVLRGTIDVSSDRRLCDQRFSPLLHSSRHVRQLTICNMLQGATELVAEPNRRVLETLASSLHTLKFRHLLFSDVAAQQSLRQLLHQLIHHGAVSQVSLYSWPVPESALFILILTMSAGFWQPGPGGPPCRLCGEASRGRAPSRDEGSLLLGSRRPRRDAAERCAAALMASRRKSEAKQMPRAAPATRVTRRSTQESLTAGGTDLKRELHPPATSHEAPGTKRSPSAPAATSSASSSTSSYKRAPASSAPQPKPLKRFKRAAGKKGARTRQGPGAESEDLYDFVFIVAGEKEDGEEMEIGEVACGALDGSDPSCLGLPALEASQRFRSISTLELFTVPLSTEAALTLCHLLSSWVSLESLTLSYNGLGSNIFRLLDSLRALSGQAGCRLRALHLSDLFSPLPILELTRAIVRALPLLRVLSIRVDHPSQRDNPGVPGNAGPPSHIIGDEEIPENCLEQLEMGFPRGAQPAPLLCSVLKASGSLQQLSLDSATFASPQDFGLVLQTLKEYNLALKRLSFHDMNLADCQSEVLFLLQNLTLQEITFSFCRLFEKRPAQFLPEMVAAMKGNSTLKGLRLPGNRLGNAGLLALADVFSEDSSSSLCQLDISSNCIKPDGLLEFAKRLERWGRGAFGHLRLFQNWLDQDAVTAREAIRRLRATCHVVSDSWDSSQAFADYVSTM
UniProt Q9UIC8: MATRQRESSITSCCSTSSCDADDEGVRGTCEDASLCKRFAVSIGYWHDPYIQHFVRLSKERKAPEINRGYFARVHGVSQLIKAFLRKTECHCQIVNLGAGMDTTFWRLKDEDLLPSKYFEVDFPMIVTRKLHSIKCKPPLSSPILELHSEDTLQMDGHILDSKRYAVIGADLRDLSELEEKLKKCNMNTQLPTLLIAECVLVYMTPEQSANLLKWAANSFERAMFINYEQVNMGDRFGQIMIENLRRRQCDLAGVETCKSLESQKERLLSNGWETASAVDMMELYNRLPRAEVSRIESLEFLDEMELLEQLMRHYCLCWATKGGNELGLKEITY
UniProt Q9BX40: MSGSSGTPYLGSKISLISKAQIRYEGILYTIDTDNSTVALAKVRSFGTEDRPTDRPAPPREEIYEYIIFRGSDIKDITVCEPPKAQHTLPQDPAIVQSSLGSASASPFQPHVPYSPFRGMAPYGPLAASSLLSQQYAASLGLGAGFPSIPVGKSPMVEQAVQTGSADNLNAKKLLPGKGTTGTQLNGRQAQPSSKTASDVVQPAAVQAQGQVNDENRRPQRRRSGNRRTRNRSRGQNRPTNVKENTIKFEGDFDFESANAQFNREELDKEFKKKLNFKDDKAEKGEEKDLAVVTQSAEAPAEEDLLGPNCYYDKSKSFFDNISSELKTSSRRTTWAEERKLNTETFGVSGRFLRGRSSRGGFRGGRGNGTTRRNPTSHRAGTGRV
UniProt Q9Y333: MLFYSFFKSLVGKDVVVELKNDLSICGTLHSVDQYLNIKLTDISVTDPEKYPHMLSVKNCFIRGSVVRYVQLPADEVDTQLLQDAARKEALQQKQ
UniProt O00214: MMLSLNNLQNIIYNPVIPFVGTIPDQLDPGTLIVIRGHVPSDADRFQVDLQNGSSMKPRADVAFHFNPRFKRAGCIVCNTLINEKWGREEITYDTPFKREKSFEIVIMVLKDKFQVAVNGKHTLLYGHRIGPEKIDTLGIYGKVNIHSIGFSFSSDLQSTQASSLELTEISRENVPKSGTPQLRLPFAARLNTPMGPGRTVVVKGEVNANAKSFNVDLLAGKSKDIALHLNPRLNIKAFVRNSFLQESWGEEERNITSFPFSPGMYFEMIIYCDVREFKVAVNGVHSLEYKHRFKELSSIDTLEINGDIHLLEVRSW
UniProt Q92539: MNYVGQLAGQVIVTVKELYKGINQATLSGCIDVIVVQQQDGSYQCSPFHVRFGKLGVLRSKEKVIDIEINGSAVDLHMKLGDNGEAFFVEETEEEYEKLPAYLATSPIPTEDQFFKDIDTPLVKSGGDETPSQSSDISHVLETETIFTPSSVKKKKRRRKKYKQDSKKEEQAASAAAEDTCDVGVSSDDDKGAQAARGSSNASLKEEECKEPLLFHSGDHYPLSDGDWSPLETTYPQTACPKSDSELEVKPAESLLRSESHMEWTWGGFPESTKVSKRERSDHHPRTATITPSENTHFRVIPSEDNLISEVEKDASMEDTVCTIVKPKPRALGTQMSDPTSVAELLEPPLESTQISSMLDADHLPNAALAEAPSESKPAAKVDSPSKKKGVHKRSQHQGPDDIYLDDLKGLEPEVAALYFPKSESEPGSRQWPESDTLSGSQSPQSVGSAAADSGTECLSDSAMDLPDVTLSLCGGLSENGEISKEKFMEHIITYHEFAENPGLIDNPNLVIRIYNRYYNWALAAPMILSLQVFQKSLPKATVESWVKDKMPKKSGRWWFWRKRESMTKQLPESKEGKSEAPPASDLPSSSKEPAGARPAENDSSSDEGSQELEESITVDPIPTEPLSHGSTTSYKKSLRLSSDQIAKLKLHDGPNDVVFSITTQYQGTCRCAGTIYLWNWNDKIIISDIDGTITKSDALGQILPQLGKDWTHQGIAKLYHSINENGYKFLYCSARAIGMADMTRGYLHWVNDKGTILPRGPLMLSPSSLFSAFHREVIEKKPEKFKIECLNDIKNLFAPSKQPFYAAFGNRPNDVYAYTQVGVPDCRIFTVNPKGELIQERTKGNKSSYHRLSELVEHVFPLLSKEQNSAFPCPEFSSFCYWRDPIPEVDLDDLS
UniProt Q9Y4Y9: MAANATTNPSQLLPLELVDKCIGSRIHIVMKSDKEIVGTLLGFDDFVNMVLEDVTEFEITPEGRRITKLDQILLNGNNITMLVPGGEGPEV
UniProt O43766: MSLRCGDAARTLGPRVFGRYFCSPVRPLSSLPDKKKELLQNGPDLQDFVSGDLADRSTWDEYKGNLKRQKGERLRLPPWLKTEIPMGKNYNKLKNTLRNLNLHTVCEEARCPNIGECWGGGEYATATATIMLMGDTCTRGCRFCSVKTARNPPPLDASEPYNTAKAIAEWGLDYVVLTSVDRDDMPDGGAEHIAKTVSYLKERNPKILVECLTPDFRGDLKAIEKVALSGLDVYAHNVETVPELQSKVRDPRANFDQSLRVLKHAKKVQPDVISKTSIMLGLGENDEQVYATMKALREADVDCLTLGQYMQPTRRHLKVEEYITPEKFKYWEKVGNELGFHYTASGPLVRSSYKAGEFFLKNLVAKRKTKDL
UniProt Q96PV6, whole entry, looked up: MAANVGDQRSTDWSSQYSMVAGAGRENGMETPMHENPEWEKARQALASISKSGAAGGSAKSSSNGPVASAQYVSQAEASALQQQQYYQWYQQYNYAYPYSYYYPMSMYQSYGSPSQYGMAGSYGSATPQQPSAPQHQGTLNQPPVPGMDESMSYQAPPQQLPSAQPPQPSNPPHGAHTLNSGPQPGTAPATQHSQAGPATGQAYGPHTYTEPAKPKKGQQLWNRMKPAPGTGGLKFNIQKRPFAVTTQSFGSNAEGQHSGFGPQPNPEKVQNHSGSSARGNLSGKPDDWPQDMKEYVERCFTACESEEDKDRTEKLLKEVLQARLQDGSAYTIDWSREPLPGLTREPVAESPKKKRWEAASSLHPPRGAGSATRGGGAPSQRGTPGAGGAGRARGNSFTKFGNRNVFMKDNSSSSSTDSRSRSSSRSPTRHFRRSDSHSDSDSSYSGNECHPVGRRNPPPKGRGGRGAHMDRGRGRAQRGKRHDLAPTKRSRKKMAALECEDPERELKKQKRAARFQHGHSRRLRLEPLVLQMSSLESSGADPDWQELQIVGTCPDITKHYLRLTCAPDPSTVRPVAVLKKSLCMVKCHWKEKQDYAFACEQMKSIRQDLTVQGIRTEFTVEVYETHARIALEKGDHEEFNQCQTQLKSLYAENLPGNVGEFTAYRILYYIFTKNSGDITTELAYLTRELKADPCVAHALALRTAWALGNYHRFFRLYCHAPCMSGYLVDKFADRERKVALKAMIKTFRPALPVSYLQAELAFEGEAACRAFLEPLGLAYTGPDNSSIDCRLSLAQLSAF
UniProt Q8NF37: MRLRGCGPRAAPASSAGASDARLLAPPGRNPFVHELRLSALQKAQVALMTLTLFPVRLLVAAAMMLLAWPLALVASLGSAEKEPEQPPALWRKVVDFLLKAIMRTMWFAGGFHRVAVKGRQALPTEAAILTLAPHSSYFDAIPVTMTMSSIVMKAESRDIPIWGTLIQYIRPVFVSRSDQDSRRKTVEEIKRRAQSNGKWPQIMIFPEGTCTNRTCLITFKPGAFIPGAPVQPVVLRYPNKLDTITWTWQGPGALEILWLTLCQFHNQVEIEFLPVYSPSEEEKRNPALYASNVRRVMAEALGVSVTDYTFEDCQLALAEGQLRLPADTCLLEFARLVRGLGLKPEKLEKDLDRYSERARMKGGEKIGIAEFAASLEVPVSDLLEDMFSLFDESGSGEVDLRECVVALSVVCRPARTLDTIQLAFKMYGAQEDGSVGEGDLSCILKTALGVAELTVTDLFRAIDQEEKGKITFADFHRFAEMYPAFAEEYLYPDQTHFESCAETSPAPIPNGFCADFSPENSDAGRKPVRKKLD
UniProt Q9Y4W2: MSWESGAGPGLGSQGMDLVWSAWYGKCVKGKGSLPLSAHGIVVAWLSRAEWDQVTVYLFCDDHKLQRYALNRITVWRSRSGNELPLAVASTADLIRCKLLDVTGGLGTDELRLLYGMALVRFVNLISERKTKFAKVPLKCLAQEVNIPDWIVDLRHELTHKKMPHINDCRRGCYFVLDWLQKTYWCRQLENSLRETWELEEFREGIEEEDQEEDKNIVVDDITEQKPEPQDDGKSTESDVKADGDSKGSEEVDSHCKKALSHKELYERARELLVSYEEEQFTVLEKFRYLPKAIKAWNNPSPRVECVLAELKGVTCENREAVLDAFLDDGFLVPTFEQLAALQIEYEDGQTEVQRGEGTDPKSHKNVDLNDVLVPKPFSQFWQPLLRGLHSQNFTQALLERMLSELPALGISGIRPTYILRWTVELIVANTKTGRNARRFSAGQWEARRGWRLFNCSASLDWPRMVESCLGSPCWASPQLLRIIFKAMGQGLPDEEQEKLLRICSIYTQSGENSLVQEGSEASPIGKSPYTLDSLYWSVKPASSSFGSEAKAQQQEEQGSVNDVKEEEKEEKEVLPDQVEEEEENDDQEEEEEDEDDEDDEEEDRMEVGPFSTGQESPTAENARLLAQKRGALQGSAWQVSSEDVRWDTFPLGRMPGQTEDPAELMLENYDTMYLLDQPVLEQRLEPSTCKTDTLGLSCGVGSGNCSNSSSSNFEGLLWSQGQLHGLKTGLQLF
UniProt Q9H0V9: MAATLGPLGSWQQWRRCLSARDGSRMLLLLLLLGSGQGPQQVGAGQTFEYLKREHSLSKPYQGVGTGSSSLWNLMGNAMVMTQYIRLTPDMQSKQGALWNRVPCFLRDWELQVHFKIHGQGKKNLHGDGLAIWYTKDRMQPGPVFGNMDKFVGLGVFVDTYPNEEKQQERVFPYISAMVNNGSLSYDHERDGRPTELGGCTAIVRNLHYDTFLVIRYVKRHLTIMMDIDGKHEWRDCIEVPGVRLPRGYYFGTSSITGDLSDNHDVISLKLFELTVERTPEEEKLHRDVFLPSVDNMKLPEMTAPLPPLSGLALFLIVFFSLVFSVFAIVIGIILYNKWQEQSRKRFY

How the values were obtained:
Test in all cases: log2 fold change, soluble protein after heating vs DMSO (PISA); higher = thermal stabilisation; K562 lysate, 10 uM; active = over 0.2 and 3.5 SD of the protein, either way, in both replicates (recomputed)
erlotinib = compound: C#Cc1cccc(Nc2ncnc3cc(OCCOC)c(OCCOC)cc23)c1 [erlotinib]
In short: (§1)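 Quantification was by TMTpro 16plex LC-MS/MS with equalised channel sums, applied to the supernatant after 21,000xg for 90 min. Samples were crude K562 extract at 1 mg/mL protein in PBS pH 7.4 with 1 mM MgCl2, treated with 10 μM compound for 30 min, heated for 3 min across 48°C-58°C, pooled and brought to 0.5% NP-40 at 4°C. Values are log-two fold changes in thermal stability relative to solvent controls, from duplicates.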

[1] = compound: C/C(=N\NC(=O)C1=CC(=CC=C1)S(=O)(=O)N2CCOCC2)/C3=C(C=CC(=C3)Cl)O
In short: as §1

[2] = compound: C1=CC(=CC=C1C2=NC3=C(N2)C=C(C=C3)C(=O)N)OC4=CC=C(C=C4)Cl
In short: as §1

[3] = compound: C1=CC2=C(C=CC(=C2)/C=C\3/C(=O)NC(=NCC4=CC=CS4)S3)N=C1
In short: as §1

[4] = compound: C1=CC2=NC=CN=C2C=C1/C=C/3\C(=O)NC(=O)S3
In short: as §1

[5] = compound: C1=CC=C(C=C1)C2=NC(=C(N2)C3=CC=NC=C3)C4=CC(=C(C=C4)Cl)O
In short: as §1

[6] = compound: C1=CC=C2C(=C1)C3=NNC4=CC=CC(=C43)C2=O
In short: as §1

[7] = compound: C1CCN(C1)C(=O)NC2=CC=CC(=C2)NC3=NC=C(C(=N3)NCCC4=CN=CN4)Br
In short: as §1

[8] = compound: C1CN(CCC1(CC2=CC=C(C=C2)Cl)N)C3=NC=NC4=C3C=CN4
In short: as §1

IRAK-1-4 Inhibitor I = compound: C1COCCN1CCN2C3=CC=CC=C3N=C2NC(=O)C4=CC(=CC=C4)[N+](=O)[O-] [IRAK-1-4 Inhibitor I]
In short: as §1

Measured: log2 fold change

LGALS1 (UniProt P09382)
inactive: erlotinib 0.021 | [1] -0.013 | [2] -0.008 | [3] 0.012 | [4] -0.02 | [5] 0 | [6] -0.011 | [7] 0.019 | [8] 0.05 | IRAK-1-4 Inhibitor I -0.005

LMBRD2 (UniProt Q68DH5)
inactive: erlotinib -0.025 | [1] -0.116 | [2] 0.155 | [3] -0.009 | [4] -0.045 | [5] -0.039 | [6] -0.021 | [7] 0.001 | [8] -0.057 | IRAK-1-4 Inhibitor I 0.029

LRRC41 (UniProt Q15345)
inactive: erlotinib 0.017 | [1] 0.034 | [2] -0.055 | [3] -0.076 | [4] 0 | [5] -0.066 | [6] 0.059 | [7] 0.05 | [8] 0.065 | IRAK-1-4 Inhibitor I 0.047

LCMT1 (UniProt Q9UIC8)
inactive: erlotinib 0.004 | [1] 0.019 | [2] 0.038 | [3] -0.034 | [4] -0.002 | [5] -0.018 | [6] 0.017 | [7] -0.007 | [8] -0.007 | IRAK-1-4 Inhibitor I 0.023

LSM14B isoform 2 (UniProt Q9BX40)
inactive: erlotinib -0.027 | [1] -0.05 | [2] -0.013 | [3] -0.015 | [4] -0.055 | [5] -0.05 | [6] 0.054 | [7] -0.044 | [8] 0.043 | IRAK-1-4 Inhibitor I -0.009

LRRC4B (UniProt Q9NT99)
inactive: erlotinib 0.01 | [1] -0.005 | [2] -0.027 | [3] -0.114 | [4] -0.148 | [5] 0.011 | [6] 0.055 | [7] -0.027 | [8] -0.009 | IRAK-1-4 Inhibitor I 0.085

LSM12 (UniProt Q3MHD2)
inactive: erlotinib -0.023 | [1] -0.135 | [2] 0.056 | [3] 0.013 | [4] 0.001 | [5] -0.017 | [6] -0.006 | [7] -0.022 | [8] 0.008 | IRAK-1-4 Inhibitor I 0.013

LSM2 (UniProt Q9Y333)
inactive: erlotinib -0.002 | [1] -0.005 | [2] 0.006 | [3] -0.045 | [4] 0.007 | [5] 0.011 | [6] -0.031 | [7] 0.033 | [8] 0.017 | IRAK-1-4 Inhibitor I 0.019

LLPH (UniProt Q9BRT6)
inactive: erlotinib -0.001 | [1] -0.042 | [2] -0.003 | [3] 0.061 | [4] -0.049 | [5] 0.024 | [6] 0.051 | [7] 0.038 | [8] -0.071 | IRAK-1-4 Inhibitor I -0.039

LGALS8 isoform 2 (UniProt O00214)
inactive: erlotinib -0.004 | [1] 0.055 | [2] 0.012 | [3] 0.072 | [4] 0.107 | [5] 0.002 | [6] 0.021 | [7] -0.009 | [8] 0.048 | IRAK-1-4 Inhibitor I 0.029

LPIN2 (UniProt Q92539)
inactive: erlotinib -0.029 | [1] -0.004 | [2] 0.027 | [3] 0.057 | [4] -0.02 | [5] 0.003 | [6] 0.088 | [7] 0.018 | [8] -0.042 | IRAK-1-4 Inhibitor I 0.022

LSM5 (UniProt Q9Y4Y9)
inactive: erlotinib -0.241 | [1] 0.027 | [2] -0.154 | [3] -0.001 | [4] -0.021 | [5] -0.216 | [6] 0 | [7] 0 | [8] -0.203 | IRAK-1-4 Inhibitor I -0.031

LBR (UniProt Q14739)
inactive: erlotinib 0.03 | [1] 0.052 | [2] -0.066 | [3] -0.021 | [4] -0.081 | [5] -0.028 | [6] -0.08 | [7] -0.032 | [8] 0.005 | IRAK-1-4 Inhibitor I 0.028

LIAS (UniProt O43766)
inactive: erlotinib -0.051 | [1] -0.021 | [2] 0.042 | [3] -0.085 | [4] -0.005 | [5] 0.064 | [6] 0.03 | [7] -0.041 | [8] -0.018 | IRAK-1-4 Inhibitor I 0.026

LDLR (UniProt P01130)
inactive: erlotinib 0.08 | [1] -0.157 | [2] -0.11 | [3] -0.062 | [4] -0.007 | [5] -0.012 | [6] -0.006 | [7] -0.033 | [8] 0.094 | IRAK-1-4 Inhibitor I -0.087

LRBA, A0A494BZW2
inactive: erlotinib -0.096 | [1] -0.017 | [2] 0.13 | [3] -0.032 | [4] -0.061 | [5] -0.018 | [6] 0.044 | [7] 0.002 | [8] 0.057 | IRAK-1-4 Inhibitor I -0.031

LENG8 (UniProt Q96PV6)
inactive: erlotinib 0.023 | [1] 0.047 | [2] -0.007 | [3] -0.07 | [4] 0.027 | [5] -0.017 | [6] -0.089 | [7] 0.025 | [8] 0.198 | IRAK-1-4 Inhibitor I 0.054

LEO1 (UniProt Q8WVC0)
inactive: erlotinib 0.014 | [1] -0.043 | [2] -0.024 | [3] -0.01 | [4] 0.009 | [5] 0.027 | [6] -0.042 | [7] 0.013 | [8] -0.015 | IRAK-1-4 Inhibitor I 0.017

LPCAT1 (UniProt Q8NF37)
inactive: erlotinib 0.056 | [1] -0.052 | [2] -0.057 | [3] 0.054 | [4] 0.062 | [5] -0.09 | [6] -0.014 | [7] -0.007 | [8] -0.025 | IRAK-1-4 Inhibitor I 0.04

LAS1L (UniProt Q9Y4W2)
inactive: erlotinib 0.053 | [1] -0.011 | [2] -0.003 | [3] -0.018 | [4] 0.022 | [5] 0.007 | [6] 0.028 | [7] -0.004 | [8] -0.027 | IRAK-1-4 Inhibitor I -0.002

LMAN2L isoform 2 (UniProt Q9H0V9)
inactive: erlotinib 0.022 | [1] 0.005 | [2] 0.001 | [3] 0.038 | [4] 0.033 | [5] -0.021 | [6] 0.025 | [7] -0.008 | [8] -0.019 | IRAK-1-4 Inhibitor I 0.031

LHPP (UniProt Q9H008)
inactive: erlotinib -0.024 | [1] -0.188 | [2] -0.005 | [3] -0.013 | [4] -0.021 | [5] -0.02 | [6] -0.084 | [7] 0.031 | [8] 0.092 | IRAK-1-4 Inhibitor I -0.012

LRPPRC (UniProt P42704)
inactive: erlotinib 0.04 | [1] 0.028 | [2] -0.02 | [3] 0.048 | [4] 0.067 | [5] -0.004 | [6] -0.017 | [7] -0.012 | [8] 0.006 | IRAK-1-4 Inhibitor I 0.006

LSR (UniProt Q86X29)
inactive: erlotinib -0.045 | [1] -0.008 | [2] -0.04 | [3] 0.032 | [4] -0.048 | [5] -0.057 | [6] -0.009 | [7] 0.038 | [8] -0.001 | IRAK-1-4 Inhibitor I -0.034

LETMD1 isoform 7 (UniProt Q6P1Q0)
inactive: erlotinib -0.008 | [1] 0.124 | [2] -0.17 | [3] 0.022 | [4] -0.021 | [5] -0.019 | [6] 0.021 | [7] -0.021 | [8] -0.032 | IRAK-1-4 Inhibitor I 0.009

LSM14A isoform 2 (UniProt Q8ND56)
inactive: erlotinib 0.01 | [1] -0.09 | [2] 0.008 | [3] 0.021 | [4] 0.007 | [5] -0.027 | [6] 0.036 | [7] 0.015 | [8] 0.01 | IRAK-1-4 Inhibitor I 0.021

LRRC47 (UniProt Q8N1G4)
inactive: erlotinib -0.018 | [1] 0.042 | [2] -0.007 | [3] -0.009 | [4] 0.005 | [5] 0.003 | [6] 0.016 | [7] 0.008 | [8] 0.006 | IRAK-1-4 Inhibitor I 0.01

Reprinted from the results shown (five entries):
LGALS8 isoform 2 (UniProt O00214)
inactive: erlotinib -0.004 | [1] 0.055 | [2] 0.012 | [3] 0.072 | [4] 0.107 | [5] 0.002 | [6] 0.021 | [7] -0.009 | [8] 0.048 | IRAK-1-4 Inhibitor I 0.029

LPIN2 (UniProt Q92539)
inactive: erlotinib -0.029 | [1] -0.004 | [2] 0.027 | [3] 0.057 | [4] -0.02 | [5] 0.003 | [6] 0.088 | [7] 0.018 | [8] -0.042 | IRAK-1-4 Inhibitor I 0.022

LSM5 (UniProt Q9Y4Y9)
inactive: erlotinib -0.241 | [1] 0.027 | [2] -0.154 | [3] -0.001 | [4] -0.021 | [5] -0.216 | [6] 0 | [7] 0 | [8] -0.203 | IRAK-1-4 Inhibitor I -0.031

LBR (UniProt Q14739)
inactive: erlotinib 0.03 | [1] 0.052 | [2] -0.066 | [3] -0.021 | [4] -0.081 | [5] -0.028 | [6] -0.08 | [7] -0.032 | [8] 0.005 | IRAK-1-4 Inhibitor I 0.028

LIAS (UniProt O43766)
inactive: erlotinib -0.051 | [1] -0.021 | [2] 0.042 | [3] -0.085 | [4] -0.005 | [5] 0.064 | [6] 0.03 | [7] -0.041 | [8] -0.018 | IRAK-1-4 Inhibitor I 0.026
